In PubChem BioAssay (EPA / NIEHS):
Where “and” joins values, the source holds several entries; their conditions need not be identical. Equal entries are not always repeated. The shares of active, inactive and inconclusive entries below differ from those in the screen. A potency beside an inconclusive call is a rough fit, not a confirmed value. Calls of active or inactive are those of the source. The calls were made as follows: active = hit-call score of the fitted dose curve at least 0.9, where 1 is the maximum; inconclusive = response in the unintended direction; inactive = score below 0.9.

Sequences of proteins named here, by UniProt entry; tags and fusion partners are left off.
UniProt P04637, whole entry, looked up: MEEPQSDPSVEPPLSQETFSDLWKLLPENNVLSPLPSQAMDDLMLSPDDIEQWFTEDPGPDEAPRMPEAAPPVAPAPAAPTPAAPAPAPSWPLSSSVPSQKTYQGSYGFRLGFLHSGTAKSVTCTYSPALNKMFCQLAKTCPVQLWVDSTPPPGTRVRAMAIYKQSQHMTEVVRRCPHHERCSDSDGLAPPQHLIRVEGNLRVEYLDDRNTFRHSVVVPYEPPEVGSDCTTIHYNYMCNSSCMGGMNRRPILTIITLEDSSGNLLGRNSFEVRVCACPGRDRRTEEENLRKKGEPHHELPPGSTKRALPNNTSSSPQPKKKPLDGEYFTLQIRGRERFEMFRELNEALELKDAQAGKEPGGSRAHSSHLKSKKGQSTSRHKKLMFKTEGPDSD

biological target: Cellular tumor antigen p53 (Homo sapiens) (UniProt P04637); assay: TOX21_p53_BLA_p3_ratio: Tox21 HCT-116 p53 Agonism Beta-lactamase Assay, Ratio, Phase 3 (AID 2283596)
In short: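 Cells were seeded at 4000/well, rested 5 h at 37C, then dosed with DMSO compound solutions (217-fold dilution) for 16 h. CCF4-AM substrate was loaded for 2 h at room temperature, and the 460/530 nm emission ratio was fitted for gain of signal versus DMSO.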

| SMILES | AC50 | outcome |
| --- | --- | --- |
| O=[N+]([O-])c1cccc(O)c1 | inconclusive: 46.2 µM | – |
| C[C@]12N[C@H](Cc3ccccc31)c1ccccc12 | inconclusive: 23 µM | – |
| COc1ccc2c(C(=O)c3ccc(Cl)cc3)c(C)n(CC(=O)O)c2c1 | inconclusive: 41.3 µM | – |
| C=C1CC[C@@]2(O)[C@H]3Cc4ccc(O)c5c4[C@@]2(CCN3CC2CC2)[C@H]1O5 | – | inactive |
| O=Cc1ccccc1 | inconclusive: 23 µM | – |
| NC1=NC(=O)C(c2ccccc2)O1 (stereo unspecified) | – | inactive |
| CN1CCC(O)(c2ccc(F)cc2)C(C(=O)c2ccc(F)cc2)C1 (stereo unspecified) | inconclusive: 23 µM | – |
| OC(c1ccccc1)(c1ccccc1)C1CN2CCC1CC2 (stereo unspecified) | inconclusive: 23 µM | – |
| O=C(O)CBr | inconclusive: 37.6 µM | – |
| ClCc1ccc(Cl)cc1Cl | – | inactive |
| CC(C)NCC(O)c1ccc([N+](=O)[O-])cc1 (stereo unspecified) | inconclusive: 23 µM | – |
| O=[N+]([O-])c1ccc2ccc3cccc4ccc1c2c34 | inconclusive: 40.4 µM | – |
| C[C@]12Cc3nonc3C[C@@H]1CC[C@@H]1[C@@H]2CC[C@@]2(C)[C@H]1CC[C@]2(C)O | – | inactive |

test system: not listed separately; assay: TOX21_p53_BLA_p4_viability: Viability Assessment in the Tox21 HCT-116 p53 Agonism Beta-lactamase Assay, Phase 4 (AID 2283597);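 also: hits lower the luminescence signal meaning cytotoxicity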
In short: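 Viability is taken as cellular ATP: after 16 h compound exposure of HCT116 cells and a 2 h room-temperature CCF4-AM substrate step, CellTiter-Glo reagent is added and luminescence is measured 30 min later.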

| SMILES | AC50 | outcome |
| --- | --- | --- |
| COC(=O)[C@@H](N)CCCN/C(N)=N/[N+](=O)[O-] | inconclusive: 4.57 µM | – |
| CCC(=O)OC1(c2ccccc2)CCN(C)CC1 | inconclusive: 52.9 µM | – |
| CCC(COC(=O)c1cc(OC)c(OC)c(OC)c1)(c1ccccc1)N(C)C (stereo unspecified) | inconclusive: 23 µM | – |
| CCN1C[C@]2(COC)[C@H](O)C[C@H](OC)[C@@]34[C@@H]5C[C@@]6(O)[C@H](OC(=O)c7ccccc7)[C@@H]5[C@@](OC(C)=O)([C@@H]([C@H](OC)[C@H]23)[C@@H]14)[C@@H](O)[C@@H]6OC | – | inactive |
| C=CC(=O)OCC(C)C | inconclusive: 82.7 µM | – |
| CC[N+](C)(CC)CCOC(=O)C(O)(c1ccccc1)c1ccccc1 | inconclusive: 0.253 µM | – |
| CN(C)CCc1c[nH]c2cccc(OP(=O)(O)O)c12 | inconclusive: 45.4 µM | – |
| CC(Cl)Cl | inconclusive: 44.4 µM | – |
| Cc1coc2c1CCC(C)C2 (stereo unspecified) | – | inactive |
| CC[C@@H](CO)NC(=O)[C@@H]1C=C2c3cccc4[nH]cc(c34)C[C@H]2N(C)C1 | – | inactive |
| C[C@]12CC[C@@H]3c4ccc(OC(=O)N(CCCl)CCCl)cc4CC[C@H]3[C@@H]1CC[C@@H]2O | inconclusive: 23 µM | – |
| C(CCOCC1CO1)COCC1CO1 (stereo unspecified) | inconclusive: 45.5 µM | – |
| CC(Cc1ccccc1)NCCn1cnc2c1c(=O)n(C)c(=O)n2C (stereo unspecified) | inconclusive: 45.6 µM | – |
| CCCC(C)(COC(N)=O)COC(=O)NC(C)C (stereo unspecified) | inconclusive: 46 µM | – |
| O=[N+]([O-])c1cccc(O)c1 | – | inactive |
| C[C@]12N[C@H](Cc3ccccc31)c1ccccc12 | inconclusive: 23 µM | – |
| COc1ccc2c(C(=O)c3ccc(Cl)cc3)c(C)n(CC(=O)O)c2c1 | – | inactive |
| CCCCc1c(C)nc(NCC)[nH]c1=O | – | inactive |
| C=C1CC[C@@]2(O)[C@H]3Cc4ccc(O)c5c4[C@@]2(CCN3CC2CC2)[C@H]1O5 | inconclusive: 23 µM | – |
| O=Cc1ccccc1 | inconclusive: 23 µM | – |
| NC1=NC(=O)C(c2ccccc2)O1 (stereo unspecified) | inconclusive: 23 µM | – |
| CN1CCC(O)(c2ccc(F)cc2)C(C(=O)c2ccc(F)cc2)C1 (stereo unspecified) | inconclusive: 23 µM | – |
| OC(c1ccccc1)(c1ccccc1)C1CN2CCC1CC2 (stereo unspecified) | – | inactive |
| ClCc1ccc(Cl)cc1Cl | inconclusive: 46.1 µM | – |
| O=[N+]([O-])c1ccc2ccc3cccc4ccc1c2c34 | inconclusive: 86.4 µM | – |
| C[C@]12Cc3nonc3C[C@@H]1CC[C@@H]1[C@@H]2CC[C@@]2(C)[C@H]1CC[C@]2(C)O | active: 23 µM | – |
| COC(C)(C)CCCC(C)C/C=C/C(C)=C/C(=O)OC(C)C (stereo unspecified) | inconclusive: 45.5 µM | – |

biological target: Cellular tumor antigen p53 (Homo sapiens) (UniProt P04637); assay: TOX21_p53_BLA_p5_ratio: Tox21 HCT-116 p53 Agonism Beta-lactamase Assay, Ratio, Phase 5 (AID 2283599)
In short: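 Beta-lactamase reporter ratio (blue 460 nm over green 530 nm, 405 nm excitation) after 2 h CCF4-AM loading, in HCT-116 cells exposed 16 h at 37 C to compounds pinned at 217-fold dilution. Increases relative to DMSO baseline scored.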

| SMILES | AC50 | outcome |
| --- | --- | --- |
| CCC(COC(=O)c1cc(OC)c(OC)c(OC)c1)(c1ccccc1)N(C)C (stereo unspecified) | inconclusive: 23 µM | – |
| C=CC(=O)OCC(C)C | – | inactive |
| CN(C)CCc1c[nH]c2cccc(OP(=O)(O)O)c12 | – | inactive |
| CC(Cl)Cl | inconclusive: 44.4 µM | – |
| CC[C@@H](CO)NC(=O)[C@@H]1C=C2c3cccc4[nH]cc(c34)C[C@H]2N(C)C1 | inconclusive: 23 µM | – |
| C[C@]12CC[C@@H]3c4ccc(OC(=O)N(CCCl)CCCl)cc4CC[C@H]3[C@@H]1CC[C@@H]2O | active: 25.2 µM | – |
| ClC=C(Cl)Cl | – | inactive |
| CCCC(C)(COC(N)=O)COC(=O)NC(C)C (stereo unspecified) | inconclusive: 46 µM | – |
| C[C@]12N[C@H](Cc3ccccc31)c1ccccc12 | inconclusive: 23 µM | – |
| COc1ccc2c(C(=O)c3ccc(Cl)cc3)c(C)n(CC(=O)O)c2c1 | – | inactive |
| CCCOC(=O)Cc1ccc(OCC(=O)N(CC)CC)c(OC)c1 | inconclusive: 23 µM | – |
| CCCCc1c(C)nc(NCC)[nH]c1=O | – | inactive |
| C=C1CC[C@@]2(O)[C@H]3Cc4ccc(O)c5c4[C@@]2(CCN3CC2CC2)[C@H]1O5 | inconclusive: 23 µM | – |
| NC1=NC(=O)C(c2ccccc2)O1 (stereo unspecified) | inconclusive: 23 µM | – |
| CN1CCC(O)(c2ccc(F)cc2)C(C(=O)c2ccc(F)cc2)C1 (stereo unspecified) | – | inactive |
| CNC(C)Cc1ccccc1OC (stereo unspecified) | inconclusive: 23 µM | – |
| CCOC(=O)CBr | inconclusive: 46.3 µM | – |
| CC(C)NCC(O)c1ccc([N+](=O)[O-])cc1 (stereo unspecified) | inconclusive: 41.3 µM | – |
| O=[N+]([O-])c1ccc2ccc3cccc4ccc1c2c34 | – | inactive |
